Laboratory results as given in patent US20030091620A1, “Transdermal drug delivery systems containing quaternary ammonium salts and methods of using the same” (priority 1999, published 2003).

How the values were obtained:
E3 organism [1] = assay: Zone of Inhibition testing of paper discs saturated with aqueous antimicrobial solutions; assay type: cell-based, gram-positive, coagulase-negative cocci
Procedure: In this experiment, the effectiveness of various topical antimicrobial agents against the E3 organism was determined using Zone of Inhibition testing of paper discs saturated with aqueous antimicrobial solutions.

E3 organism [2] = assay: Zone of Inhibition testing of antimicrobial-loaded transdermal matrix disks; assay type: cell-based, gram-positive, coagulase-negative cocci; settings: 24 h
Procedure: These patches were cut into 1 cm^2 disks and subjected to Zone of Inhibition testing against the E3 organism with 24-hour incubation.
In the next experiment, placebo matrix patches (18 cm^2 area) were manufactured for a clinical wear study.

CC(C)(C)CC(C)(C)c1ccc(OCCOCC[N+](C)(C)Cc2ccccc2)cc1 [Benzethonium Chloride, benzethonium chloride]
zone of inhibition at 0.4 % strength (E3 organism [1]): 12 mm
zone of inhibition at 0.4 % strength (E3 organism [2]): 17 mm
